Results are given in words; binding and its absence hold for the method and conditions named. Some entries that bind do so weakly or less than the wild type.
Experiments:
hIL-4Rα.ECD (human) [1] = target: hIL-4Rα.ECD (human) (UniProt P24394); assay: SPR (Biacore 8K), hIL-4Rα.ECD analyte
hIL-4Rα.ECD (human) [2] = target: hIL-4Rα.ECD (human) (UniProt P24394); assay: SPR (Biacore 8K), captured antibody, sequential injection of hIL-4Rα then hTSLP (simultaneous binding)

Amino acid sequences for entries named in this document (tags omitted). Residues count along the entry.
UniProt P24394, residues 26-232: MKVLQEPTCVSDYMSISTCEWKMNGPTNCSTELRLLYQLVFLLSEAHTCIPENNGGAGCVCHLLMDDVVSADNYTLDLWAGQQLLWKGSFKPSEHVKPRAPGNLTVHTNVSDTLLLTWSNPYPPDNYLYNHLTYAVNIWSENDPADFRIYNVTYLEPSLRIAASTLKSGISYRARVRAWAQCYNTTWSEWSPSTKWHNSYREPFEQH

B1: MTM (bispecific antibody, human IgG2, lambda)
heavy: QMQLVESGGGVVQPGRSLRLSCAASGFTFRTYGMHWVRQAPGKGLEWVAVIWYDGSNKHYADSVKGRFTITRDNSKNTLNLQMNSLRAEDTAVYYCARAPQWELVHEAFDIWGQGTMVTVSSASTKGPSVFPLAPCSRSTSESTAALGCLVKDYFPEPVTVSWNSGALTSGVHTFPAVLQSSGLYSLSSVVTVPSSNFGTQTYTCNVDHKPSNTKVDKTVERKCCVECPPCPAPPVAGPSVFLFPPKPKDTLMISRTPEVTCVVVDVSHEDPEVQFNWYVDGVEVHNAKTKPREEQFNSTFRVVSVLTVVHQDWLNGKEYKCKVSNKGLPAPIEKTISKTKGQPREPQVYTLPPSREEMTKNQVSLTCLVKGFYPSDIAVEWESNGQPENNYKTTPPMLDSDGSFFLYSKLTVDKSRWQQGNVFSCSVMHEALHNHYTQKSLSLSPGKGGGGSGGGGSQVQLVQSGAEVKKPGASVKVSCKASGYTFTTYYIYWVRQAPGQCLEWMGGSNPSTGGTLDNEKFKTRVTMTVDKSTSTAYMELSSLRSEDTAVYYCTRSGRYAPFTYWGCGTLVTVSSGGGGSGGGGSGGGGSGGGGSDIQMTQSPSSLSASVGDRVTITCKASQDVSTSVAWYQQKPGKAPKLLIYSASYRFTGVPSRFSGSGSGTDFTFTISSLQPEDFATYYCQHYSTTPFTFGCGTKLEIK
light: SYVLTQPPSVSVAPGQTARITCGGNNLGSKSVHWYQQKPGQAPVLVVYDDSDRPSWIPERFSGSNSGNTATLTISRGEAGDEADYYCQVWDSSSDHVVFGGGTKLTVLGQPKAAPSVTLFPPSSEELQANKATLVCLISDFYPGAVTVAWKADSSPVKAGVETTTPSKQSNNKYAASSYLSLTPEQWKSHRSYSCQVTHEGSTVEKTVAPTECS
B1 was tested, and the binding (hIL-4Rα.ECD (human) [1]) was “binds” and the binding (hIL-4Rα.ECD (human) [2]) was “binds”.

From patent EP4814012A1
